The other results are listed elsewhere or left out.
Compound: Cc1cc(ccc1-c1ccccc1)C(=O)N1CCCN(CC1)C(=O)CCl [compound 10]
Assay: probe-labelled cysteine peptide fold change vs DMSO (competition) (log2 fold change); higher = less target engagement (more negative = stronger competition)
Settings: 10 µM; THP-1; incubation time: 4 h
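Note: competitive profiling in live THP-1 cells: cysteine peptides tagged with an iodoacetamide desthiobiotin (IA-DTB) probe, intensity after compound treatment relative to DMSO-treated cells.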

Sequences of proteins named here, by UniProt entry; tags and fusion partners are left off. A change or cut given only in a name is not applied to a line headed by its entry.
UniProt P42224: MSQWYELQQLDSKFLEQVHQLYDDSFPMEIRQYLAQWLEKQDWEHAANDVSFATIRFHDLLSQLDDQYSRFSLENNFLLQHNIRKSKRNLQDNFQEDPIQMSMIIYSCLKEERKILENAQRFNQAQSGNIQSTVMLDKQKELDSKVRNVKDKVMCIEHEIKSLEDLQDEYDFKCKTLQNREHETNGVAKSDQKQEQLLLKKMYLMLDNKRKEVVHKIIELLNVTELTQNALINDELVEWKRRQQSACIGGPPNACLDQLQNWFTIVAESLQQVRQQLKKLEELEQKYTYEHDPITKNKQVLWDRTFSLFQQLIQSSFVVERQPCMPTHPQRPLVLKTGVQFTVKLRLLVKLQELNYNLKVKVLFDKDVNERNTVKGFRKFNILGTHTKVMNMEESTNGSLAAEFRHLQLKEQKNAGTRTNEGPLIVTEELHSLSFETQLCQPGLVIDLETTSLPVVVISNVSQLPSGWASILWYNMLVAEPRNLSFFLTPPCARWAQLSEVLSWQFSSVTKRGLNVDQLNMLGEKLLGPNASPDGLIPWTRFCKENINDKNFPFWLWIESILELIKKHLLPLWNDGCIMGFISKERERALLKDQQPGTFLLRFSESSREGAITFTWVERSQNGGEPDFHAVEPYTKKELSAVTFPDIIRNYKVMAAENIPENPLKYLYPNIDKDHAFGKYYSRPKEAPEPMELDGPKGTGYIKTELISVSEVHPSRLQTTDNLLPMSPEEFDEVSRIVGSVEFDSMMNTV
UniProt Q9UQ35: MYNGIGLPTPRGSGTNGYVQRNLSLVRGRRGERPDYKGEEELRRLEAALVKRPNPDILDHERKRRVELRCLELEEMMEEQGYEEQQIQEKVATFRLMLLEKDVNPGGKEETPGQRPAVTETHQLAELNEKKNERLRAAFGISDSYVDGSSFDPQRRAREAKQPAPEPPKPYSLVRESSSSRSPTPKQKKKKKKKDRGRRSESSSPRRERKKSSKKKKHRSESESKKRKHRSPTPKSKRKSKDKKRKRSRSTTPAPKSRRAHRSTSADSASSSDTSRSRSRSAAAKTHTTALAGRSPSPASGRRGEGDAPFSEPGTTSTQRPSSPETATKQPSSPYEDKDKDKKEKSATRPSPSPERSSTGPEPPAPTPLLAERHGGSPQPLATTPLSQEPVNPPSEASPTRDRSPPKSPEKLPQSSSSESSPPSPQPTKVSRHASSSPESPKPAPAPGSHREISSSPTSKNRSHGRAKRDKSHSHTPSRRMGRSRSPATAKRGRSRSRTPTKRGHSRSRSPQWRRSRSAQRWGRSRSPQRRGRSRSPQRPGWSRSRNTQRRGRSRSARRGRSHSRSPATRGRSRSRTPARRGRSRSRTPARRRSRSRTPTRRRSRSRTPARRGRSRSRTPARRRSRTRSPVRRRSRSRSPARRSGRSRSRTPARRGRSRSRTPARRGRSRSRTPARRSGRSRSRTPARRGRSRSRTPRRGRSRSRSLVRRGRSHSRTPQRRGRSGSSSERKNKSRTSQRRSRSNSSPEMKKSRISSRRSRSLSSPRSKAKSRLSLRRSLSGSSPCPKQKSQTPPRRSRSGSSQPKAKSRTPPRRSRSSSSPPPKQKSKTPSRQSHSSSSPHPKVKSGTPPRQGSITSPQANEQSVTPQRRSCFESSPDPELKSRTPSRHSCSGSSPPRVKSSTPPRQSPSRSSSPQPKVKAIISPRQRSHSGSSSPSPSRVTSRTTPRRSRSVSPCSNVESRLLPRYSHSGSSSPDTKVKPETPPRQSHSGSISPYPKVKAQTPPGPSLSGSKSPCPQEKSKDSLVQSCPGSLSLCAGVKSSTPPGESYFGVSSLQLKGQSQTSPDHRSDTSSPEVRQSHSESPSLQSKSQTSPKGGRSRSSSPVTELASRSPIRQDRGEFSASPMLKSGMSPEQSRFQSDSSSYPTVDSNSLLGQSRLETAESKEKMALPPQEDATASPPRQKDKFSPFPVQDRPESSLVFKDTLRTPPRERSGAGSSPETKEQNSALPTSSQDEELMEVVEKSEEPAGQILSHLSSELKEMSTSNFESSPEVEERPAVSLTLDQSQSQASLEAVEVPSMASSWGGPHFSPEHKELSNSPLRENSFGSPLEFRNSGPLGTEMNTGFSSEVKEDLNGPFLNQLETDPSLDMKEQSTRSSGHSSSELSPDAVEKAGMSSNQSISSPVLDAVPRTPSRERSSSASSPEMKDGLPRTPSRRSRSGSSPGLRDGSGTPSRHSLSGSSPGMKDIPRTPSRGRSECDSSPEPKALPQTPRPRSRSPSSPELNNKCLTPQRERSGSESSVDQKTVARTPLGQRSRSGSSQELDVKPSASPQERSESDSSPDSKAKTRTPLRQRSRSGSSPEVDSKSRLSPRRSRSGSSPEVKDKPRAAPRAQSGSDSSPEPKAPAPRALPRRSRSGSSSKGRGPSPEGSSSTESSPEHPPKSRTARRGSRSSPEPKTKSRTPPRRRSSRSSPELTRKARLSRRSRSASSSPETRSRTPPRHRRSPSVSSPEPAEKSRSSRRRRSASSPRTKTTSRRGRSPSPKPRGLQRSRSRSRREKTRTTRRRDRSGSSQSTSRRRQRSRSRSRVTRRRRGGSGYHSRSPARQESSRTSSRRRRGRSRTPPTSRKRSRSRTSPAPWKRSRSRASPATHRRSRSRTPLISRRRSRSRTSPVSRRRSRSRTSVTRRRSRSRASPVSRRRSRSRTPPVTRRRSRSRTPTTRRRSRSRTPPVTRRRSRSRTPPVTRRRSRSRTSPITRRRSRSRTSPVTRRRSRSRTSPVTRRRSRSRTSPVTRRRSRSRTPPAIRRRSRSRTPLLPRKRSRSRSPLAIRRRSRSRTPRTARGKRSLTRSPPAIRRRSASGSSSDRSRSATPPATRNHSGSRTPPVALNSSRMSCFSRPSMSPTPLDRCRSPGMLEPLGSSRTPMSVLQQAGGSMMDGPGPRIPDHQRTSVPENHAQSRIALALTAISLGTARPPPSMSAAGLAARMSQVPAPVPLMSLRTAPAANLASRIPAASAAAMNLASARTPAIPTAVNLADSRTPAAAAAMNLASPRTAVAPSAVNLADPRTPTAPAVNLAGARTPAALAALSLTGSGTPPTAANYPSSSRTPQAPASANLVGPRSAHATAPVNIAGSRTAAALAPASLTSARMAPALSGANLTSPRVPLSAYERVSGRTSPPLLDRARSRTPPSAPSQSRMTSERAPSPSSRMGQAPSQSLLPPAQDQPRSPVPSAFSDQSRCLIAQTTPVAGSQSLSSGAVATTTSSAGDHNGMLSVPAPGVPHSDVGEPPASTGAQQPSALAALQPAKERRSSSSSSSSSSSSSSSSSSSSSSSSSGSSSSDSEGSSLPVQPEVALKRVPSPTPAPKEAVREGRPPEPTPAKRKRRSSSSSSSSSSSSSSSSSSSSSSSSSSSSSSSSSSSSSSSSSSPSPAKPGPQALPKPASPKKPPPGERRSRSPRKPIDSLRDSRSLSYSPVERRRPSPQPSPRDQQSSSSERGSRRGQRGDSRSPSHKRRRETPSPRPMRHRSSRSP
UniProt Q8WVM7: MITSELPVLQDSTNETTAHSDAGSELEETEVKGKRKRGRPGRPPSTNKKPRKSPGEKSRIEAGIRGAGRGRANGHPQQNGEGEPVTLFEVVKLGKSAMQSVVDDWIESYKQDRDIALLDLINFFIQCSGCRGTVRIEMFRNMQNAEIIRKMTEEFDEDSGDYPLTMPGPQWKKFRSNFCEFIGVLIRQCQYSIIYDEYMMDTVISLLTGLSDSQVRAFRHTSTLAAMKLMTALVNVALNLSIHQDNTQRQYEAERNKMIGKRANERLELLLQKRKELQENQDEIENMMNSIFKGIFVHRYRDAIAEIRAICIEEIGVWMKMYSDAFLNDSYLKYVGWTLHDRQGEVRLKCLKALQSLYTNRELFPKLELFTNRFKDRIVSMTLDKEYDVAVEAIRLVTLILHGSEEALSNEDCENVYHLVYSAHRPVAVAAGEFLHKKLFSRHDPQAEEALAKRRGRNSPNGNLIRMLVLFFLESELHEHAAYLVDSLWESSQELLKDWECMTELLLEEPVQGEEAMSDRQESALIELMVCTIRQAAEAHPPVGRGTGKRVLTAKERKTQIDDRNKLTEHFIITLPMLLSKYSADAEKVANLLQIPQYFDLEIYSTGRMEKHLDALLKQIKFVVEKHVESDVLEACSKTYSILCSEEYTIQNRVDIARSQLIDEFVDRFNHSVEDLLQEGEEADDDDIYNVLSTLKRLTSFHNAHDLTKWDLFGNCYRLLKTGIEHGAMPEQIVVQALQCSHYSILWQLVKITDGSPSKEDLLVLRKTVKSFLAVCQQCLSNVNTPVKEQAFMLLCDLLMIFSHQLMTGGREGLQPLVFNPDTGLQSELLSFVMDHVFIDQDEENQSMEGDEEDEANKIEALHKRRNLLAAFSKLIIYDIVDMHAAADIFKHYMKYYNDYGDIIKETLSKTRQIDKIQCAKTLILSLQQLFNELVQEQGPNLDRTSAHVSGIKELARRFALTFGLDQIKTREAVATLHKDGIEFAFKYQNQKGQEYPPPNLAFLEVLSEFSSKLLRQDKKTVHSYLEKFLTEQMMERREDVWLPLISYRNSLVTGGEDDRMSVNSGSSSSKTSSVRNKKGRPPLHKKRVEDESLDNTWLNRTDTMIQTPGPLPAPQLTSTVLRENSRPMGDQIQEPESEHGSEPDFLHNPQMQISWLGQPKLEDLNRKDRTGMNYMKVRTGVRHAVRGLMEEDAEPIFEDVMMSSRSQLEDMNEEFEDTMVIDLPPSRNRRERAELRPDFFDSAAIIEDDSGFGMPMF
UniProt Q15468: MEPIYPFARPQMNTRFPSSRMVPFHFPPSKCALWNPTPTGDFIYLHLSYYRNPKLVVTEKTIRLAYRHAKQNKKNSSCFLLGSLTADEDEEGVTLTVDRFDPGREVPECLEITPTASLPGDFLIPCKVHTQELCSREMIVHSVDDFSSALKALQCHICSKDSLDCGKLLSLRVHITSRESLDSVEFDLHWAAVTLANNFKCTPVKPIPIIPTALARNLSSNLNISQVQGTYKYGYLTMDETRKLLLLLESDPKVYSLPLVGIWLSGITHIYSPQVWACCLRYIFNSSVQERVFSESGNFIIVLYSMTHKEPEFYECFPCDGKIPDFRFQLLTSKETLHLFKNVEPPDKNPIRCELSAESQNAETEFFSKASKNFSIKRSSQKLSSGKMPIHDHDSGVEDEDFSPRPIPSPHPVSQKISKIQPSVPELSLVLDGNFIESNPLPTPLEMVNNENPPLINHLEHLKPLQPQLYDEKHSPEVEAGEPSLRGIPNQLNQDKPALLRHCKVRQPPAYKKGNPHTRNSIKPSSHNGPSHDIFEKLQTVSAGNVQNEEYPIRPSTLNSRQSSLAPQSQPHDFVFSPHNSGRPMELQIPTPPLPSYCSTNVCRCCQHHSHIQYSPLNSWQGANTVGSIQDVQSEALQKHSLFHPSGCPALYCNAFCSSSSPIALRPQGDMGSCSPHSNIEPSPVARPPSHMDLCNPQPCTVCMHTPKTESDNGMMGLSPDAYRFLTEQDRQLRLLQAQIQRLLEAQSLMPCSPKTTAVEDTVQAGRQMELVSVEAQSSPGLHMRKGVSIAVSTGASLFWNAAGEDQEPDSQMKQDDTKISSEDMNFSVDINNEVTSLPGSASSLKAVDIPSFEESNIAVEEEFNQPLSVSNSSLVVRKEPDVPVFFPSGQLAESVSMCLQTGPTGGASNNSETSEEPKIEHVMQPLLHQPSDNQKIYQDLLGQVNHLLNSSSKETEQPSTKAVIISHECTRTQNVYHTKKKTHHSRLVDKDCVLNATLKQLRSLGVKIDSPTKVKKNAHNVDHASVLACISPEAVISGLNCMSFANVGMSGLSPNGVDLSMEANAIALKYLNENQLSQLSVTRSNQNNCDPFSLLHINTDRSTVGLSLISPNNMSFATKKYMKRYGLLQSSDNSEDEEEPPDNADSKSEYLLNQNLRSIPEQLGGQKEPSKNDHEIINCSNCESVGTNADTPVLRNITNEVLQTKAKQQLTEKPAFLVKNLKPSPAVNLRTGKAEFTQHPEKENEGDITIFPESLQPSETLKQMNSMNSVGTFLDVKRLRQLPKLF
UniProt Q92783: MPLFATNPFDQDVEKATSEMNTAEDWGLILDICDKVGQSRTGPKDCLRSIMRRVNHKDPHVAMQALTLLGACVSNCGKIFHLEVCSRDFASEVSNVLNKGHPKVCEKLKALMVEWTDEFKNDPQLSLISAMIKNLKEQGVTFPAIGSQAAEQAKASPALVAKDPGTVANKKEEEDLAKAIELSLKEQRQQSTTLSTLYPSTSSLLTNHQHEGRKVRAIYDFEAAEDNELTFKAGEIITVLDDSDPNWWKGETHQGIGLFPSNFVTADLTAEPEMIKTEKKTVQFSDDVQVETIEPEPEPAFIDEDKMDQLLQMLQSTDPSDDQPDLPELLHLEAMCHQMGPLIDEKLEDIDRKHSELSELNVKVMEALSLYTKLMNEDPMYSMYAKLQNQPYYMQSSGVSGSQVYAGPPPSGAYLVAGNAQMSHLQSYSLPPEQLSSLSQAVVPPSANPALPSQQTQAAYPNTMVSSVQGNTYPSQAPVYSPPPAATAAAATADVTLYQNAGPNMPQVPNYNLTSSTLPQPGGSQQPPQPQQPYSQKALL

Target | probe-labelled cysteine peptide fold change
STIM2_Q9P246_426_ALSELTTCLR (UniProt Q9P246) | -0.00769
STRN_O43815_765_CYIASAGADALAK (UniProt O43815) | -0.0453
SUZ12_Q15022_494_IDVSINECYDGSYAGNPQDIHR (UniProt Q15022) | 0.105
STXBP3_O00186_546_CAYEVSQAHK (UniProt O00186) | 0.00129
STOML2_Q9UJZ1_167_ESLNASIVDAINQAADCWGIR (UniProt Q9UJZ1) | 0.209
SWAP70_Q9UH65_261_GDILLDENCCVESLPDK (UniProt Q9UH65) | 0.0948
SUPT5H_O00267_429_EHNFQPGDNVEVCEGELINLQGK (UniProt O00267) | -0.204
STK39_Q9UEW8_525_LASGCDGSEIPDEVK (UniProt Q9UEW8) | -0.108
STAT1_P42224_324_QPCMPTHPQRPLVLK (UniProt P42224) | -0.202
SRSF7_Q16629_119_GHYAYDCHR (UniProt Q16629) | 0.0697
SVIL_O95425_76_YCTETSGVHGDSPYGSGTMDTHSLESK (UniProt O95425) | 0.144
SRRM2_Q9UQ35_956_SVSPCSNVESR (UniProt Q9UQ35) | -0.0208
SUPT20H_Q8NEM7_341_SDDSQPTVWPAHDVKDDYVFECEAGTQYQK (UniProt Q8NEM7) | -0.365
STRN4_Q9NRL3_17_AAAAVAAAASSCRPLGSGAGPGPTGAAPVSAPAPGPGPAGK (UniProt Q9NRL3) | -0.14
SRRT_Q9BXP5_715_WLCPLSGKK (UniProt Q9BXP5) | 0.0525
STAG1_Q8WVM7_531_QESALIELMVCTIR (UniProt Q8WVM7) | 0.212
STXBP3_O00186_354_QVVHLNLAEDCMNK (UniProt O00186) | -0.206
STX7_O15400_28_ITQCSVEIQR (UniProt O15400) | 0.218

Target | probe-labelled cysteine peptide fold change
STAT2_P52630_529_LFGQNCR (UniProt P52630) | -0.178
STIL_Q15468_126_EVPECLEITPTASLPGDFLIPCK (UniProt Q15468) | 0.316
SSU72_Q9NP77_111_DLFDLILTCEER (UniProt Q9NP77) | 0.00247
SUPT16H_Q9Y5B9_153_SWNDCLNK (UniProt Q9Y5B9) | -0.0906
STXBP2_Q15833_365_LCSVEQDLAMGSDAEGEK (UniProt Q15833) | -0.172
SRSF9_Q13242_138_EAGDVCYADVQK (UniProt Q13242) | 0.0189
STAG2_Q8N3U4_711_WDLFACNYK (UniProt Q8N3U4) | 0.155
STUB1_Q9UNE7_83_MQQHEQALADCR (UniProt Q9UNE7) | 0.251
SUCLG1_P53597_172+181_LIGPNCPGVINPGECK (UniProt P53597) | -0.119
STIM1_Q13586_56_IDKPLCHSEDEK (UniProt Q13586) | -0.542
SVIL_O95425_1928_ALIYLWHGCK (UniProt O95425) | -0.173
STAM_Q92783_76_DPHVAMQALTLLGACVSNCGK (UniProt Q92783) | 0.0253
STRN_O43815_316_EDQCLMPEAWNVDQGVITK (UniProt O43815) | -0.23
STAT2_P52630_71_ATMLFFHFLDQLNYECGR (UniProt P52630) | 0.132
STK11IP_Q8N1F8_710_TESPAVCPNCGSDHVVLLAVSR (UniProt Q8N1F8) | 0.128
SSRP1_Q08945_207_ELQCLTPR (UniProt Q08945) | 0.0587
STAMBP_O95630_286_GVETCGILCGK (UniProt O95630) | 0.09

Same assay, conditions: 50 µM; THP-1; incubation time: 4 h

Target | probe-labelled cysteine peptide fold change
STIM2_Q9P246_426_ALSELTTCLR (UniProt Q9P246) | -0.562
STRN_O43815_765_CYIASAGADALAK (UniProt O43815) | -0.216
SUZ12_Q15022_494_IDVSINECYDGSYAGNPQDIHR (UniProt Q15022) | 0.302
STXBP3_O00186_546_CAYEVSQAHK (UniProt O00186) | 0.0519
STOML2_Q9UJZ1_167_ESLNASIVDAINQAADCWGIR (UniProt Q9UJZ1) | 0.252
SWAP70_Q9UH65_261_GDILLDENCCVESLPDK (UniProt Q9UH65) | 0.239
SUPT5H_O00267_429_EHNFQPGDNVEVCEGELINLQGK (UniProt O00267) | -0.0713
STK39_Q9UEW8_525_LASGCDGSEIPDEVK (UniProt Q9UEW8) | 0.0413
STAT1_P42224_324_QPCMPTHPQRPLVLK (UniProt P42224) | 0.136
SRSF7_Q16629_119_GHYAYDCHR (UniProt Q16629) | 0.341
SVIL_O95425_76_YCTETSGVHGDSPYGSGTMDTHSLESK (UniProt O95425) | 0.114
SRRM2_Q9UQ35_956_SVSPCSNVESR (UniProt Q9UQ35) | 0.233
SUPT20H_Q8NEM7_341_SDDSQPTVWPAHDVKDDYVFECEAGTQYQK (UniProt Q8NEM7) | -0.157
STRN4_Q9NRL3_17_AAAAVAAAASSCRPLGSGAGPGPTGAAPVSAPAPGPGPAGK (UniProt Q9NRL3) | -0.496
SRRT_Q9BXP5_715_WLCPLSGKK (UniProt Q9BXP5) | -0.657
STAG1_Q8WVM7_531_QESALIELMVCTIR (UniProt Q8WVM7) | 0.416
STXBP3_O00186_354_QVVHLNLAEDCMNK (UniProt O00186) | -0.141
STX7_O15400_28_ITQCSVEIQR (UniProt O15400) | 0.16

Target | probe-labelled cysteine peptide fold change
STAT2_P52630_529_LFGQNCR (UniProt P52630) | 0.0371
STIL_Q15468_126_EVPECLEITPTASLPGDFLIPCK (UniProt Q15468) | 0.571
SSU72_Q9NP77_111_DLFDLILTCEER (UniProt Q9NP77) | -0.0928
SUPT16H_Q9Y5B9_153_SWNDCLNK (UniProt Q9Y5B9) | 0.0803
STXBP2_Q15833_365_LCSVEQDLAMGSDAEGEK (UniProt Q15833) | -0.0811
SRSF9_Q13242_138_EAGDVCYADVQK (UniProt Q13242) | -0.152
STAG2_Q8N3U4_711_WDLFACNYK (UniProt Q8N3U4) | 0.204
STUB1_Q9UNE7_83_MQQHEQALADCR (UniProt Q9UNE7) | 0.147
SUCLG1_P53597_172+181_LIGPNCPGVINPGECK (UniProt P53597) | -0.113
STIM1_Q13586_56_IDKPLCHSEDEK (UniProt Q13586) | -0.218
SVIL_O95425_1928_ALIYLWHGCK (UniProt O95425) | 0.285
STAM_Q92783_76_DPHVAMQALTLLGACVSNCGK (UniProt Q92783) | 0.216
STRN_O43815_316_EDQCLMPEAWNVDQGVITK (UniProt O43815) | -0.374
STAT2_P52630_71_ATMLFFHFLDQLNYECGR (UniProt P52630) | 0.391
STK11IP_Q8N1F8_710_TESPAVCPNCGSDHVVLLAVSR (UniProt Q8N1F8) | 0.299
SSRP1_Q08945_207_ELQCLTPR (UniProt Q08945) | 0.0918
STAMBP_O95630_286_GVETCGILCGK (UniProt O95630) | -0.00811

From the supplement of paper PMC12067093, “Discovery and optimisation of a covalent ligand for TRIM25 and its application to targeted protein ubiquitination” (Chemical Science, 2025)
